For 3 molecules, z-score results are on record in PubChem BioAssay AID1224903 (Bradner/Qi Labs at DFCI, 2016).

The chains behind the UniProt entries cited, without tags or fusion partners.
UniProt O95931, whole entry: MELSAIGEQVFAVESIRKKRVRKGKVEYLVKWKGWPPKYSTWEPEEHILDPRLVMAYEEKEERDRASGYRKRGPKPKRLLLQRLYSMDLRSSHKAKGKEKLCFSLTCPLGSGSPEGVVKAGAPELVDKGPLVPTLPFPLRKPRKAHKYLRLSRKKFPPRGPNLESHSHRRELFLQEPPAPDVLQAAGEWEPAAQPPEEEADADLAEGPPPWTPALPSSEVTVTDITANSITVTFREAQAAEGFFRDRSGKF

Molecules are shown by their SMILES. This is one part of the list.

This experiment concerns the target Chromobox protein homolog 7 (Homo sapiens) (UniProt O95931). As to the kind of experiment: CBX7 chromodomain binding inhibitors, primary screen, biochemical, AlphaScreen (AID 1224903). As to conditions: AlphaScreen His6-CBX7 / biotin-H3K27me3 peptide binding; measured here: z-score of CBX7 signal; stronger effect = lower value. For orientation: In Alpha technology, singlet oxygen from a donor bead excites a nearby acceptor bead.
For the molecule `C1CN(c2nonc2-[n+]2nc3nonc3[n-]2)CCO1`, the z-score was -2.42.
`O=C(OCCN1CCN(CCOCc2ccccc2)CC1)C(O)(c1ccccc1)c1ccccc1` displayed a z-score of 0.902.
The result for `C=CCN1CCN(CCOC(=O)C(O)(c2ccccc2)c2ccccc2)CC1` reads 0.88.
